About 3,300 (1.1%) of roughly 300,000 compounds were called active. Listed are the inconclusive results; actives and inactives stand elsewhere.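 Rule for the calls: active = more than half of the replicate wells show a fall in the fluorescence ratio signal beyond about 16% (limit read from the data, passing the limit was not always enough); inconclusive = exactly half of the replicate wells pass the set limit; inactive = fewer than half of replicates pass the limit.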
tested on: Ran GTPase (GTP-bound) - importin-beta complex; experiment: disruptors of Ran-importin-beta complex formation – biochemical, FRET, CFP-Ran, YFP-importin-beta, homogeneous, primary screen (AID 2216); settings: cell-free CFP-Ran/YFP-importin-beta FRET ratio; hits give high values; concentration not given here;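 note: 0% = DMSO wells and 100% = Ran loaded with GDP instead of GTP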

Q: For `O=C(NCC1(N2CCCCC2)CCCCC1)c1ccc(OC(F)F)cc1`, which inhibition is on record?
A: inconclusive: 23.4%

Q: For `CC(C)(C)OC(=O)N1CCC(N(C(=O)c2ccccc2)c2ccc(F)cc2)CC1`, which inhibition is on record?
A: inconclusive: 21.1%

Q: `CN1CCC(Nc2ccc(Cl)cc2)CC1` was tested. Which inhibition did it give?
A: inconclusive: 7.49%

Q: `CCc1cc(C(=O)NCC2(N3CCCCC3)CCCCC2)sc1C` was tested. Which inhibition did it give?
A: inconclusive: 9.93%

Reference: PubChem BioAssay AID2216 (Broad Institute, 2009)
